# No constants are given. Whether binding was seen depends on the method and setting. Binding seen in cells or lysates may run through a third protein. Some binding calls cover weakened binding; strength is not graded here.
# Sequences of proteins named here, by UniProt entry; tags and fusion partners are left off. Residues count along the entry.
# UniProt O00116, residues 59-658: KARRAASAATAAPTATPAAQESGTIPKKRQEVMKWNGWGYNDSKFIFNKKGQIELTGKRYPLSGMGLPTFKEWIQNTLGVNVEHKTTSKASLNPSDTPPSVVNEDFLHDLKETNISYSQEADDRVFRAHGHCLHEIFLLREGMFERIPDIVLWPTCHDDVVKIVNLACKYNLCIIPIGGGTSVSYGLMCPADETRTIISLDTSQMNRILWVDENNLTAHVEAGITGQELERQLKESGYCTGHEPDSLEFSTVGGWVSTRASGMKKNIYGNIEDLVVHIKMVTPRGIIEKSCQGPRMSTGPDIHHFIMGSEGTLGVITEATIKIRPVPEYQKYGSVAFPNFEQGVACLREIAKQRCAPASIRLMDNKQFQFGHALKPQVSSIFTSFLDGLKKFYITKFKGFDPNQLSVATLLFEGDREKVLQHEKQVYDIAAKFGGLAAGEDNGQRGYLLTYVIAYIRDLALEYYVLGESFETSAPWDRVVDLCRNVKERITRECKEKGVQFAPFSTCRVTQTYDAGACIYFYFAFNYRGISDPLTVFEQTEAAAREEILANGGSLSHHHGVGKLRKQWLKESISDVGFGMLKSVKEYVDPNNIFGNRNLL
# Target: Alkylglycerone phosphate synthase (human (endogenous in U251)) (UniProt O00116)
# Experiment: co-IP; U251 lysate in RIPA buffer, rabbit anti-AGPS antibody (6 ug in 500 ul total protein) overnight at 4°C, Protein A agarose beads, washed 3 times with RIPA; western blot for AGPS and HNRNPK; control, shR-AGPS1 and shR-AGPS2 cells
substance,measurement,value
Heterogeneous nuclear ribonucleoprotein K (from UniProt P61978 1-463),binding,binds

# From publication PMC8492241
